These are yes or no findings as the source states them, for the method shown. Some binding calls cover weakened binding; strength is not graded here.
Columns and labels:
[1] = biological target: T1, PD-L1 protein (human, UniProt Q9NZQ7 19-238, limits assumed); experiment: ELISA: PD-L1 coated, FITC-labelled PPLC, HRP anti-FITC detection
T1 construct: Plate-coated recombinant protein; also called human PD-L1 protein

Amino acid sequences for entries named in this document (tags omitted). A change or cut given only in a name is not applied to a line headed by its entry.
UniProt Q9NZQ7: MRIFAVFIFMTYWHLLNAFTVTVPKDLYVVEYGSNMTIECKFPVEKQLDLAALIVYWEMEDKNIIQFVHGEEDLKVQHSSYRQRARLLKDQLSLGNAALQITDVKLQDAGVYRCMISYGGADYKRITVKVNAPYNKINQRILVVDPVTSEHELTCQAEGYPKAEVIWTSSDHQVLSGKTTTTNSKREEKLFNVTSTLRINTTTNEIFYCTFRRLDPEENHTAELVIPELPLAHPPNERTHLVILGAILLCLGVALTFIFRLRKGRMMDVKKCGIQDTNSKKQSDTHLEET

[2] = biological target: T1, PD-L1 protein; experiment: summary of FIG. 1 to FIG. 6 (ELISA)

Binder: VSVSHFQKVWVV (FITC fluorophore label (position of attachment not stated)) [PPLC peptide labeled with FITC]
- binding [1]: binds
- binding [2]: binds

Source: patent US20210230286A1 (published 2021)
